No constants are given. Whether binding was seen depends on the method and setting. Binding calls can cover weak binding; strength is not graded here.
Assays:
[1] = biological target: cynomolgus monkey CD8A (cynomolgus monkey); test: PET imaging of cynomolgus monkeys with and without CD8 T cell depletion
[2] = biological target: cynomolgus monkey CD8A (cynomolgus monkey); test: in vivo PET organ uptake in cynomolgus monkeys, nondepleted against CD8-depleted (anti-CD8 antibody CM-T807), 0.25 h and 2 h after injection
[3] = biological target: cynomolgus monkey CD8A (cynomolgus monkey); test: in vivo PET spleen uptake in cynomolgus monkeys, nondepleted against CD8-depleted (anti-CD8 antibody CM-T807), 0.25 h and 2 h after injection

binding [1]: binds | binding [2]: binds | binding [3]: binds
B1: [124I]-IPEM CD8S365 (designed binder)
chain: LPAPKNLVVSRVTEDSARLSWTAPDAAFDSFGILYYEPVDSGEAITLPVPGSCRSYDLTGLKPGTEYWVVITGVKGGAPSTPLGTIFTT
modifications: [124I]-IPEM (maleimide label) conjugated to the free cysteine of E54C

Reference: patent US20210032312A1
